This assay deals with Mena (mammalian Enabled) (mouse (endogenous in mouse heart)) (UniProt Q03173). Briefly: co-IP; adult mouse heart lysate incubated with 5 μg purified anti-Mena, anti-αII-Spectrin or anti-SH3i antibodies, then protein A-sepharose; washed in lysis buffer; Western blot; GST-specific antibodies as control. (In western blotting, separated proteins are transferred to a membrane and probed.)

The chains behind the UniProt entries cited, without tags or fusion partners. Where a name states a change or a piece, a line headed by the entry shows the natural chain unless it says otherwise.
UniProt Q03173: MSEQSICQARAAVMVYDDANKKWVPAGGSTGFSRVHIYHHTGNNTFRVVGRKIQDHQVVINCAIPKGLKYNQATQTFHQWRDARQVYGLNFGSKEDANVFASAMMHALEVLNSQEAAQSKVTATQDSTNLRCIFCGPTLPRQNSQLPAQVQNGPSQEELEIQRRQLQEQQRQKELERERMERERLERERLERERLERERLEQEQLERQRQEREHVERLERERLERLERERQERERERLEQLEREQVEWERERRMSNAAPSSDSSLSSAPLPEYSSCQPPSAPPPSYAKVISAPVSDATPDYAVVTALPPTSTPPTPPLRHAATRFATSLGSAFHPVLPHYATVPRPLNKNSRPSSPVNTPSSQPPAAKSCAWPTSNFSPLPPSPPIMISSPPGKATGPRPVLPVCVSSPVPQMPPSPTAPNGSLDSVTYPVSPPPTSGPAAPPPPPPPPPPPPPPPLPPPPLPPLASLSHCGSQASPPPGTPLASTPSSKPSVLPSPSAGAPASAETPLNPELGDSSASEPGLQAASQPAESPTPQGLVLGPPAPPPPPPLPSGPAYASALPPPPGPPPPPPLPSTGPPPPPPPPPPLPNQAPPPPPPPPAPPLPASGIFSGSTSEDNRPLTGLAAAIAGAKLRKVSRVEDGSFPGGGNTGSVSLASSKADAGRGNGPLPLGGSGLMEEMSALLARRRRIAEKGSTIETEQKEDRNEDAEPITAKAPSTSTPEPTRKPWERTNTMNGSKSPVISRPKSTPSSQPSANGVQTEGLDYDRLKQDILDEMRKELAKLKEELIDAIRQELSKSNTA
UniProt P23242: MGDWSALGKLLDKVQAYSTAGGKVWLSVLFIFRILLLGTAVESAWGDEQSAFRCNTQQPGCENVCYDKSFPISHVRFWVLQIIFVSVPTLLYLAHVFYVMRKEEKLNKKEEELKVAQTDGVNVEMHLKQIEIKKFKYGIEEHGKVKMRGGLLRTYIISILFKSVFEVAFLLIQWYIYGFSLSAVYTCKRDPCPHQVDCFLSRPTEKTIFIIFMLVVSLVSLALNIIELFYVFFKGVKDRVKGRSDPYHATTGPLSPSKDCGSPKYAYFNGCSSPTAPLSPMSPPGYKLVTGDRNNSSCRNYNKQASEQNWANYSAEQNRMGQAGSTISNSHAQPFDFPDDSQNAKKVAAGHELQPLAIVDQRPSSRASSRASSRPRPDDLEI

No constants are given. Whether binding was seen depends on the method and setting. In cells and extracts the contact can be indirect. Binding can be weak; no strength is given.

In the case of “Connexin 43, endogenous in adult mouse heart (from UniProt P23242 1-382)”, the binding result is on record as “binds”.
